The series deals with MBP-OsbHLH35 (Oryza sativa). The series is described as follows: EMSA. To be noted: among strongest of the sites; EMSA: binding buffer 10 mM Tris-HCl pH 7.5, 50 mM KCl, 3.5 mM DTT, 0.25% Tween 20, 5% glycerol, 5 mM MgCl2; recombinant protein; protein details: MBP; label: FAM. A general note: A gel shift assay detects complexes by their altered migration in electrophoresis.

For at least one entry, the source does not settle the construct or the ends of the probe.

In the case of “GAGCACCCGCAATGGTAAAGTAATG (double strand) [BS1]”, the binding result is recorded as “binds”.

For the origin of these results see article PMC12902297.
